Measurements: PubChem BioAssay AID2685 (National Center for Advancing Translational Sciences (NCATS), 2010)
The other results are listed elsewhere or left out. Shown are side measurements of this screen, not its main read-out; they come without a call. Most of these compounds were active or inconclusive in the main read-out, so they are no random draw. Words in brackets tell the shape of the fitted curve; partial curves, single points and poor fits give uncertain potencies.

Assay: qHTS Assay for Lipid Storage Modulators in Drosophila S3 Cells;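 for cell number change: cells counted by Cell Tracker Red CMTPX staining in the red channel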
Conditions: BODIPY lipid droplet fluorescence, 18-24 h; for cell number change: measured here: cell count max response, cells fed with added oleic acid
In short: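 Drosophila S3 cells got compounds at several concentrations plus oleic acid (400 uM solution). Laser-scanning cytometry with 488 nm excitation read lipid droplets at 500-530 nm and cells at 575-640 nm. Percent activity was relative to 20 uM Triacsin C.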

[1] = measured here: cell number channel AC50, cells fed with added oleic acid
[2] = measured here: lipid fluorescence (Fed channel) AC50, cells fed with added oleic acid

Compound | cell number change | AC50 [1] | AC50 [2]
Cc1ccc(C(=O)OC2OC(=O)C(Cl)=C2N2CCOCC2)cc1 (stereo not given) | -20.5% | 1030 nM [falling, full curve, poor fit] | 4610 nM [falling, single point]
COc1ccccc1-c1noc(-c2cccnc2)n1 | – | – | 580 nM [falling, single point]
Cc1c(Cc2ccccc2)c(=O)oc2cc(OCc3nn[nH]n3)ccc12 | 3.32% | – | –
CCOC(=O)C(C)C1(O)c2ccccc2-c2ncccc21 (stereo not given) | -10.6% | – | 146 nM [falling, full curve, poor fit]
COc1cc(C(=S)N2CCOCC2)cc(OC)c1OC(=O)c1cccc(C)c1 | -8.15% | – | 29100 nM [falling, single point]
O=C(Nc1ccc(-n2cccn2)cc1)C1CCCCN1Cc1cccc2cccnc12 (stereo not given) | 13.2% | – | 6510 nM [rising, single point]
COC(=O)c1ccccc1S(=O)(=O)N1CCC(C(=O)OCC(=O)NCC(F)(F)F)CC1 | -49.5% | 16400 nM [falling, single point] | 18400 nM [falling, single point]
Nc1c(C(=O)Nc2ccccc2Cl)nnn1-c1ccc2c(c1)OCCO2 | 134% | 29100 nM [rising, single point] | –
C/C(CCc1ccccc1)=N\NC(=O)COc1ccccc1C | -43.7% | – | 22400 nM [rising, single point]
Cc1ccc(NC(=S)NC2CC3CCC(C2)N3Cc2ccco2)c(C)c1 (stereo not given) | -72.8% | 23100 nM [falling, partial curve, poor fit] | 11600 nM [falling, partial curve, poor fit]
NS(=O)(=O)c1ccc(CCNC(=O)C2Cc3ccccc3CN2C(=O)c2ccco2)cc1 (stereo not given) | – | 651 nM [falling, single point] | 731 nM [falling, single point]
COc1ccc(/C=C2\SC(N)=NC2=O)cc1 | 0.549% | – | 29100 nM [rising, single point]
CSc1ccc(/C=N\Nc2nncn2N)cc1 | -67.6% | 29100 nM [falling, single point] | 29100 nM [falling, single point]
O=C(O)COCCN1CCN(C(c2ccccc2)c2ccc(Cl)cc2)CC1 (stereo not given) | -18.8% | 4.11 nM [falling, full curve, poor fit] | 4.61 nM [falling, full curve, poor fit]
CC(=O)n1cc([C@H]2C=C(C(=O)N3CCN(Cc4ccc5c(c4)OCO5)CC3)O[C@@H](OCc3ccc(CO)cc3)C2)c2ccccc21 | -42.3% | 20600 nM [falling, partial curve, poor fit] | 23100 nM [falling, single point]
CC(C)C(CCNC(=O)CN1C(=O)c2ccccc2C1=O)c1ccco1 (stereo not given) | -33.3% | 2060 nM [falling, partial curve] | 1840 nM [falling, full curve, poor fit]
CCOc1ccc(-n2cnc3sc(C)c(C)c3c2=O)cc1 | 23.3% | 651 nM [rising, full curve, poor fit] | –
O=c1[nH]c(CSc2ncc(C(F)(F)F)cc2Cl)nc2ccccc12 | 22.3% | 580 nM [rising, single point] | –
COc1ccc(CCN2CC(C(=O)OC(C)C(=O)Nc3cccc(Cl)c3)CC2=O)cc1OC (stereo not given) | -14.1% | – | 10300 nM [rising, partial curve]
COc1nc(N)c(S(=O)(=O)c2ccc(C)cc2)cc1C#N | – | – | 29100 nM [rising, single point]
CCOc1ccc(CNC(c2ccccc2)c2ccccc2)cc1 | -1.37% | – | 29100 nM [rising, single point]
Cc1ccc(NC(=O)NC2CCN(CC(=O)Nc3nccs3)CC2)cc1 | -11.1% | – | 146 nM [rising, full curve]
COc1ccc(C(CC(=O)N2CCCC2)c2c(OC)cc(OC)c3ccc(=O)oc23)cc1 (stereo not given) | 8.48% | – | 20600 nM [rising, single point]
CCC(C)(C)NC(=O)C(c1cccnc1)N(CCOC)C(=O)Cn1nnc2ccccc21 (stereo not given) | -0.457% | 73.1 nM [rising, full curve, poor fit] | –
CSc1ccccc1OCc1cc(C(=O)NCCCn2nc(C)cc2C)no1 | -14.4% | 1640 nM [rising, partial curve, poor fit] | –
Cc1nc(NC(=O)C2CC2)sc1C | -2.44% | 1840 nM [falling, partial curve] | 1840 nM [falling, partial curve]
COc1ccc(NC(=S)N2CCC(NC(=O)c3cccc(C)c3)CC2)cc1 | 1.28% | – | 411 nM [falling, partial curve]

Taken from above.
In cell number change, `COc1ccc(NC(=S)N2CCC(NC(=O)c3cccc(C)c3)CC2)cc1` has the entry 1.28%
In cell number change, `CSc1ccccc1OCc1cc(C(=O)NCCCn2nc(C)cc2C)no1` has the entry -14.4%

Later entries

Compound | cell number change | AC50 [1] | AC50 [2]
C[C@H](NC(=O)c1ccccc1)C(=O)OCC(=O)Nc1ccc2c(c1)OCO2 | -16.4% | – | 411 nM [falling, full curve, poor fit]
CCCc1ncc(CN2CCCC(C(=O)Nc3ccc(-c4cccc(OC)c4)cc3)C2)cn1 (stereo not given) | -17.4% | – | –
CCC(C)NC(=O)CN(C1CCCCC1)S(=O)(=O)c1ccc(F)cc1 (stereo not given) | 21.1% | 2060 nM [rising, partial curve, poor fit] | –
CCOc1ccc(Br)cc1C1=CC(=O)C[C@H](c2ccc(OC)cc2)C1 | -30.8% | 25900 nM [falling, single point] | –
O=c1[nH]c(-c2ccc(Cl)cc2)nc2c1cnn2-c1ccccc1 | -23% | – | 20600 nM [falling, partial curve]
CCCCn1nc(C(=O)NCc2ccccc2CN2CCCC2)c2ccccc2c1=O | 5.83% | – | 731 nM [rising, full curve]
COc1ccc(N(C(=O)Cn2nnc(-c3ccc(F)cc3)n2)C(C)C(=O)NC2CCCC2)cc1OC (stereo not given) | 2.82% | – | 32600 nM [falling, single point]
CC(C)c1nnc(NC(=O)CSc2ccccc2)s1 | 21% | – | 164 nM [rising, full curve, poor fit]
COc1ccc(CC(=O)Nc2nnc(C)s2)cc1 | 25.3% | – | 18400 nM [rising, single point]
N#CC(C#N)=CC1=C2OC(c3ccccc3)=CC(c3ccccc3)=C2CCC1 | 14.7% | 411 nM [rising, partial curve, poor fit] | 461 nM [rising, partial curve]
Cc1ccc(N2CCN(S(=O)(=O)c3ccc4oc(=O)ccc4c3)CC2)cc1Cl | 34.6% | 1030 nM [rising, full curve, poor fit] | –
COc1ccc(C2/C(=C(/O)c3ccc4c(c3)CC(C)O4)C(=O)C(=O)N2CCN2CCOCC2)cc1 (stereo not given) | -11.4% | – | –
Cc1nnc(SCC(=O)Nc2cccc(S(=O)(=O)N(C)c3ccccc3)c2)s1 | -2.03% | – | 23100 nM [falling, single point]
COc1ccc(-c2cc(C)no2)cc1S(=O)(=O)N1CC(=O)Nc2ccccc21 | -0.298% | – | 116 nM [rising, full curve, poor fit]
COC(=O)c1ccccc1NC(=O)CSc1n[nH]c(-c2ccco2)n1 | 9.66% | – | 6510 nM [falling, single point]
Cc1ccc(NC(=O)c2cc3nc(C)cc(C)n3n2)cc1 | – | 2590 nM [rising, partial curve] | 580 nM [rising, single point]
CCOc1ccccc1C(=O)Nc1ccccc1-c1ccccc1 | -0.282% | – | 4610 nM [rising, partial curve, poor fit]
Cc1cccnc1NC(=O)c1ccc2nc(N)sc2c1 | – | 130 nM [rising, full curve, poor fit] | 1160 nM [rising, full curve]
COc1ccc(CNc2cccc(C)n2)c(O)c1 | 3.63% | – | 366 nM [rising, full curve, poor fit]
CC(NC(=O)COC(=O)c1cc(Cl)ccc1O)C1CC2CCC1C2 (stereo not given) | -38.4% | 3660 nM [falling, full curve] | 13000 nM [falling, partial curve, poor fit]
CSCCC(NC(=O)c1ccco1)C(=O)O (stereo not given) | -42.5% | 2590 nM [falling, full curve] | 651 nM [falling, full curve, poor fit]
Cn1c(=O)c2cc(S(=O)(=O)NCCC(=O)Nc3ccc(Cl)cc3)ccc2n(C)c1=O | 26.4% | – | 20600 nM [rising, single point]
CC1=NN(c2ccc(C)c(C)c2)C(=O)/C1=C\C=C\c1ccc([N+](=O)[O-])o1 | -64.3% | 23100 nM [falling, single point] | 29100 nM [falling, partial curve, poor fit]
COc1cc(/C=N/NC(=O)c2cccc(N3CCCC3=O)c2)ccc1O | 32.1% | 20600 nM [rising, single point] | 29100 nM [rising, partial curve, poor fit]
CNC(=O)CCc1[nH]c2ccccc2c1Sc1ccccc1 | -18.5% | 4.11 nM [rising, full curve, poor fit] | 5170 nM [rising, full curve]
NC(=O)c1ccsc1NC(=O)CCS(=O)(=O)c1ccccc1 | -5.54% | – | –
CN(C)c1nc(NCc2ccccc2)nc(N/N=C/c2ccccc2F)n1 | – | – | 4.61 nM [falling, full curve, poor fit]
